In patent publication US20090311271A1:
These are yes or no findings as the source states them, for the method shown. Some results given as binding are weak or reduced against the parent protein; the word gives no strength.

Amino acid sequences for entries named in this document (tags omitted). Residues count along the entry.
UniProt Q9EQ09, residues 55-363: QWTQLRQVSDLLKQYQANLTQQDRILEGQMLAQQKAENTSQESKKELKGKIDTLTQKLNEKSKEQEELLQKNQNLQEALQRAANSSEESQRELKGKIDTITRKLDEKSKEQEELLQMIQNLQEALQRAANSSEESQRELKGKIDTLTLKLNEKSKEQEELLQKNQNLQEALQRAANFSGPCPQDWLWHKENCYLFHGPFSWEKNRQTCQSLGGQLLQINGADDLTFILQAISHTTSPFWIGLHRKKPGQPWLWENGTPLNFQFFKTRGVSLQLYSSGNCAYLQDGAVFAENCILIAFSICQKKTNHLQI

Molecular target: recombinant mouse LOX-1 Fc protein (mouse) (UniProt Q9EQ09)
Assay: AlphaScreen competition, antibody titrated against Bio-oxLDL=0.5ug/ml and mFc-mLOX-1=0.3ug/ml

B1: LOX1-11A2 (antibody, V domains shown)
VH: EEQLVESGGGLVQPGGSLKLSCLASGFTLSNYGMNWIRQAPGKGLEWVASISSSSSYFYYADTVKGRFTISREDAKNTLNLQMTSLRSEDTALYYCARGITIAAGFTMDAWGQGTSVTVSS
VL: DIQMTQSPTSLSASLGETVSIECRASEDIYNNLAWYQQKSGKSPQLLIYYASTLQDGVPSRFSGSGSGTQFSLKISGMQPEDEGLYYCLQGSKYPRTFGGGTKLELKR
  binding: binds
